Data as given in PubChem BioAssay AID504791 (Drosophila RNAi Screening Center, 2011)

Aim: 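Genes whose knock-down strengthens or weakens small-RNA reporter silencing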 (primary screen)
System: Drosophila S2-derived reporter cells
Reagent: long dsRNA against Drosophila genes, about 150-250 ng dsRNA per well (siRNA assay); about 80-120 ng (miRNA assay)
Duration: about 5 days (siRNA assay); about 4 days (miRNA assay)
Challenge: copper sulfate induction of reporters: 25 µM (siRNA assay); 200 mM stated (miRNA assay), 1-2 days before reading
Read-out: 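Per-well ratio of Renilla over firefly light, expressed relative to that plate's average ratio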
Active means: 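First-pass picks had plate-scaled ratios over 1.5 for the siRNA assay, over 1.6 for the miRNA assay, or under 0.6; two distinct dsRNAs had to score alike on retest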
The screen tested about 23,000 reagents; shown is a random part of those that have a named target and a result. Of all reagents, 199 (0.86%) are marked active. 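Plate-scaled ratios behind the calls are not deposited; printed light signals are raw; many rows marked increased or decreased are still called inactive.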 The numbers tell different reagents against one gene apart. A plus sign joins genes that one reagent is predicted to hit. No sequences are given here. Not given: the direction of the score.

Cog3 | stable assay Renilla, run 1 (luminescence): 46601; stable assay firefly, run 1 (luminescence): 1.41e5; activity call: inactive
CG13255 | stable assay Renilla, run 1 (luminescence): 6974; stable assay firefly, run 1 (luminescence): 4.25e5; activity call: inactive
CG32075 | stable assay Renilla, run 1 (luminescence): 5926; stable assay firefly, run 1 (luminescence): 4.04e5; activity call: inactive
CG31464 | stable assay Renilla, run 1 (luminescence): 6014; stable assay firefly, run 1 (luminescence): 3.93e5; activity call: inactive
CG15878 | stable assay Renilla, run 1 (luminescence): 6239; stable assay firefly, run 1 (luminescence): 3.57e5; activity call: inactive
CG9962 | stable assay Renilla, run 1 (luminescence): 7910; stable assay firefly, run 1 (luminescence): 3.94e5; activity call: inactive
CG7194 | stable assay Renilla, run 1 (luminescence): 6806; stable assay firefly, run 1 (luminescence): 4.09e5; activity call: inactive
CG6678 | stable assay Renilla, run 1 (luminescence): 10098; stable assay firefly, run 1 (luminescence): 4.29e5; activity call: inactive
Sec24CD | miRNA reporter change: reporter ratio lowered past the hit cutoff; stable assay Renilla, run 1 (luminescence): 9966; stable assay firefly, run 1 (luminescence): 6.42e5; activity call: inactive
GATAe #1 | stable siRNA reporter change: reporter ratio raised past the hit cutoff; stable assay Renilla, run 1 (luminescence): 3812; stable assay firefly, run 1 (luminescence): 1.42e5; activity call: inactive
GATAe #2 | stable assay Renilla, run 1 (luminescence): 3943; stable assay firefly, run 1 (luminescence): 3.42e5; activity call: inactive
GstD3 | stable assay Renilla, run 1 (luminescence): 6846; stable assay firefly, run 1 (luminescence): 4.07e5; activity call: inactive
CG15160 | stable assay Renilla, run 1 (luminescence): 6134; stable assay firefly, run 1 (luminescence): 5.40e5; activity call: inactive
CG30037 | stable assay Renilla, run 1 (luminescence): 5316; stable assay firefly, run 1 (luminescence): 2.63e5; activity call: inactive
CG7728 | stable assay Renilla, run 1 (luminescence): 7178; stable assay firefly, run 1 (luminescence): 2.70e5; activity call: inactive
CG32733 (retired record) + CG32797 | stable siRNA reporter change: reporter ratio lowered past the hit cutoff; stable assay Renilla, run 1 (luminescence): 5048; stable assay firefly, run 1 (luminescence): 3.97e5; activity call: inactive
CG31910 + snoRNA:Me28S-G2743 (retired record) | stable assay Renilla, run 1 (luminescence): 5327; stable assay firefly, run 1 (luminescence): 4.25e5; activity call: inactive
CG8138 | stable assay Renilla, run 1 (luminescence): 6863; stable assay firefly, run 1 (luminescence): 4.14e5; activity call: inactive
Epp | stable assay Renilla, run 1 (luminescence): 9361; stable assay firefly, run 1 (luminescence): 4.57e5; activity call: inactive
mtTFB2 | stable siRNA reporter change: reporter ratio lowered past the hit cutoff; stable assay Renilla, run 1 (luminescence): 6530; stable assay firefly, run 1 (luminescence): 6.33e5; activity call: inactive
Sec13 | stable assay Renilla, run 1 (luminescence): 10911; stable assay firefly, run 1 (luminescence): 2.91e5; activity call: inactive
CG14929 + CG4970 #1 | stable assay Renilla, run 1 (luminescence): 6987; stable assay firefly, run 1 (luminescence): 3.25e5; activity call: inactive
CG14929 + CG4970 #2 | stable assay Renilla, run 1 (luminescence): 6559; stable assay firefly, run 1 (luminescence): 3.68e5; activity call: inactive
CG18808 | stable assay Renilla, run 1 (luminescence): 6260; stable assay firefly, run 1 (luminescence): 4.00e5; activity call: inactive
Tsp29Fb | stable assay Renilla, run 1 (luminescence): 6967; stable assay firefly, run 1 (luminescence): 3.77e5; activity call: inactive
CG13101 | stable assay Renilla, run 1 (luminescence): 6384; stable assay firefly, run 1 (luminescence): 3.29e5; activity call: inactive
CG32115 | stable assay Renilla, run 1 (luminescence): 6370; stable assay firefly, run 1 (luminescence): 6.28e5; activity call: inactive
CG12016 + Dpm2 | stable assay Renilla, run 1 (luminescence): 6808; stable assay firefly, run 1 (luminescence): 3.04e5; activity call: inactive
CheB93b | stable assay Renilla, run 1 (luminescence): 9854; stable assay firefly, run 1 (luminescence): 5.38e5; activity call: inactive
CG34447 | stable assay Renilla, run 1 (luminescence): 7106; stable assay firefly, run 1 (luminescence): 4.36e5; activity call: inactive
cos | stable assay Renilla, run 1 (luminescence): 22113; stable assay firefly, run 1 (luminescence): 1.28e6; activity call: inactive
hoip | stable assay Renilla, run 1 (luminescence): 7006; stable assay firefly, run 1 (luminescence): 2.56e5; activity call: inactive
CG17768 + LSm-4 | stable assay Renilla, run 1 (luminescence): 7987; stable assay firefly, run 1 (luminescence): 3.91e5; activity call: inactive
CG12780 | stable assay Renilla, run 1 (luminescence): 6274; stable assay firefly, run 1 (luminescence): 2.74e5; activity call: inactive
CG42365 | stable assay Renilla, run 1 (luminescence): 7362; stable assay firefly, run 1 (luminescence): 5.16e5; activity call: inactive

5 entries from above, reformatted:
gene	reagent	stable siRNA reporter change	miRNA reporter change	stable assay Renilla, run 1 (luminescence)	stable assay firefly, run 1 (luminescence)	activity call
CG7728	1			7178	2.70e5	inactive
CG32733 (retired record) + CG32797	1	reporter ratio lowered past the hit cutoff		5048	3.97e5	inactive
CG31910 + snoRNA:Me28S-G2743 (retired record)	1			5327	4.25e5	inactive
CG8138	1			6863	4.14e5	inactive
Epp	1			9361	4.57e5	inactive
